# Results deposited as PubChem BioAssay AID1259254 (NCATS, 2017).
# Aim: 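Genome-wide screen for genes that prevent DNA re-replication in cancer cells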 (primary screen)
# Cells: human HCT116 colorectal cancer cells
# Knock-down reagent: single siRNA against human genes
# Duration: 3 days
# Measured: 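Nuclei stained with Hoechst and imaged; cell-cycle phase assigned by DNA content; G2 share scaled per plate, non-targeting siRNA 0%, GMNN siRNA 100%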
# Direction: G2 robust z-score and G2 cells, % of GMNN control: higher = more G2 cells, more excess DNA replication
# Active means: 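An siRNA counts as active if its G2 robust z-score lies at least 5 MADs above the screen median; here such calls match roughly 38% of GMNN control or more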
# The whole screen tested about 59,000 reagents; this is an unselected part. Over the whole deposit, about 1,550 (2.6%) were called active. 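G2 share is only a proxy for re-replication; each gene was hit by three separate siRNAs, and active genes were retested.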 The numbers tell different reagents against one gene apart. Not all columns of the deposit are shown. The record does not give: the amount of reagent.
target gene,reagent,G2 robust z-score,"G2 cells, % of GMNN control",call
HERC1,1,-0.269,1.08,inactive
HERC1,2,0.349,5.42,inactive
HERC1,3,-0.73,-2.17,inactive
KLHL9,1,-0.534,-0.79,inactive
KLHL9,2,-0.672,-1.76,inactive
KLHL9,3,0.00153,2.98,inactive
ATP5F1E,1,1.48,13.4,inactive
ATP5F1E,2,0.0984,3.66,inactive
ATP5F1E,3,-0.669,-1.74,inactive
AKR7L,1,-0.283,0.977,inactive
AKR7L,2,-0.914,-3.47,inactive
AKR7L,3,0.137,3.93,inactive
UBE2B,1,-1.29,-6.09,inactive
UBE2B,2,2.72,22.1,inactive
UBE2B,3,-0.586,-1.16,inactive
CAPNS1,1,-0.652,-1.62,inactive
CAPNS1,2,0.167,4.14,inactive
CAPNS1,3,0.317,5.2,inactive
GET1,1,0.705,7.93,inactive
GET1,2,-0.299,0.865,inactive
GET1,3,-0.923,-3.52,inactive
MED12,1,1.29,12,inactive
MED12,2,-1.05,-4.4,inactive
MED12,3,-1.46,-7.3,inactive
SPINT2,1,1.71,15,inactive
SPINT2,2,2.66,21.6,inactive
SPINT2,3,-0.327,0.665,inactive
BTBD7,1,0.161,4.1,inactive
BTBD7,2,3.15,25.1,inactive
BTBD7,3,-0.463,-0.288,inactive
RAB40B,1,-0.863,-3.11,inactive
RAB40B,2,-0.525,-0.73,inactive
RAB40B,3,3.72,29.1,inactive
RPS10P30,1,2.55,20.9,inactive
RPS10P30,2,-0.295,0.895,inactive
RPS10P30,3,4.67,35.8,inactive

Continued; the last 7 above are carried over.
target gene,reagent,G2 robust z-score,"G2 cells, % of GMNN control",call
BTBD7,3,-0.463,-0.288,inactive
RAB40B,1,-0.863,-3.11,inactive
RAB40B,2,-0.525,-0.73,inactive
RAB40B,3,3.72,29.1,inactive
RPS10P30,1,2.55,20.9,inactive
RPS10P30,2,-0.295,0.895,inactive
RPS10P30,3,4.67,35.8,inactive
SNX25,1,1.02,10.1,inactive
SNX25,2,0.0951,3.64,inactive
SNX25,3,0.364,5.53,inactive
MGARP,1,-1.33,-6.37,inactive
MGARP,2,-0.599,-1.24,inactive
MGARP,3,-0.34,0.575,inactive
WDR13,1,-0.345,0.541,inactive
WDR13,2,-0.755,-2.35,inactive
WDR13,3,0.428,5.98,inactive
OR2G6,1,-0.831,-2.88,inactive
OR2G6,2,-0.809,-2.73,inactive
OR2G6,3,-1.11,-4.86,inactive
AVIL,1,-0.881,-3.23,inactive
AVIL,2,1.14,11,inactive
AVIL,3,-0.303,0.838,inactive
ABLIM3,1,-0.569,-1.04,inactive
ABLIM3,2,0.796,8.57,inactive
ABLIM3,3,-1.21,-5.58,inactive
LRRC14B,1,-0.0681,2.49,inactive
LRRC14B,2,1.69,14.9,inactive
LRRC14B,3,0.963,9.74,inactive
ZNF267,1,0.738,8.16,inactive
ZNF267,2,-0.589,-1.18,inactive
ZNF267,3,-0.398,0.165,inactive
BEST2,1,0.314,5.18,inactive
BEST2,2,5.25,39.9,active
BEST2,3,-0.414,0.055,inactive
CCNE2,1,-0.489,-0.473,inactive
CCNE2,2,0.281,4.94,inactive
CCNE2,3,-0.943,-3.67,inactive
POM121L9P,1,-0.83,-2.87,inactive
POM121L9P,2,-0.847,-2.99,inactive
POM121L9P,3,-0.95,-3.72,inactive
